This is one part of the list.
Tests used:
Test in all cases: log2 fold change, soluble protein after heating vs DMSO (PISA); higher = thermal stabilisation; K562 cells, 10 uM, 30 min; active = over 0.2 and 3.5 SD of the protein, either way, in both replicates (recomputed)
[1] = compound: CS(=O)(=O)c1ccc(-c2cnc(N)c(C(=O)Nc3ccccc3)n2)cc1
Method in brief: (§1)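 Thermal stability values are relative to control samples and come from duplicates. They are expressed as log2 fold changes. For measurement, K562 cells (2×10^6 cells/mL) received 10 μM compound for 30 min, and aliquots were heated for 3 min over 48°C-58°C, pooled, and extracted at 4°C in PBS with 0.5% NP-40. Soluble protein, the supernatant after 21,000xg for 90 min, was quantified by TMTpro 16plex LC-MS/MS with equalised channel sums.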

Sequences of proteins named here, by UniProt entry; tags and fusion partners are left off. A change or cut given only in a name is not applied to a line headed by its entry.
UniProt Q8TBN0: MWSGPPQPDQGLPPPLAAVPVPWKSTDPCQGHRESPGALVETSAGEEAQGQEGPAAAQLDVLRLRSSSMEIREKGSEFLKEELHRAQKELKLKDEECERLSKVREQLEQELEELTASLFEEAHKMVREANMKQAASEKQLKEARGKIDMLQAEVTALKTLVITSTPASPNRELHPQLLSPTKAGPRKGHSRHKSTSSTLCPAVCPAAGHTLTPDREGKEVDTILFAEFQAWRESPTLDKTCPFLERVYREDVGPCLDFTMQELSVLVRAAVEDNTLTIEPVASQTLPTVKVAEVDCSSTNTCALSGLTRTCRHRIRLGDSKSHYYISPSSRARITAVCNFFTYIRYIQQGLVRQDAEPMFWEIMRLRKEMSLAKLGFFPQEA
UniProt A4D1S5: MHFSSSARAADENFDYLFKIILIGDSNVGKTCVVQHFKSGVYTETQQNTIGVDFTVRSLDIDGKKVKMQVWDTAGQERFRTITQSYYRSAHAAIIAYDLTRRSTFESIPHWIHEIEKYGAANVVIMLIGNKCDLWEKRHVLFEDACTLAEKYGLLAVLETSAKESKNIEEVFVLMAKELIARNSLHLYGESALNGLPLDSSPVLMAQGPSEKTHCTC
UniProt P51151: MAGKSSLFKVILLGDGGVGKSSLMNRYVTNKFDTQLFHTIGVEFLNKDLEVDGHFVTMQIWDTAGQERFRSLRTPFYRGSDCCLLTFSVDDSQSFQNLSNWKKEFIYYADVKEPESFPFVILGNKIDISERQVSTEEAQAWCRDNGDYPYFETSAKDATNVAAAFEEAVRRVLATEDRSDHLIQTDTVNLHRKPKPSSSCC
UniProt Q8N0T1: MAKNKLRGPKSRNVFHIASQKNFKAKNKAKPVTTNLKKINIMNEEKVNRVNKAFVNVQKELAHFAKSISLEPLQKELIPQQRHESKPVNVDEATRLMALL
UniProt P20337: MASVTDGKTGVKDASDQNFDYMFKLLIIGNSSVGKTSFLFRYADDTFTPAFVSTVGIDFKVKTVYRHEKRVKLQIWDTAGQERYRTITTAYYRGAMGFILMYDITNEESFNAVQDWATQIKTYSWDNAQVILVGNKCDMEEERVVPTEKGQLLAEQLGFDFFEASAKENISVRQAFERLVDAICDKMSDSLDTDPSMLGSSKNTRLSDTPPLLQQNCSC
UniProt Q14644: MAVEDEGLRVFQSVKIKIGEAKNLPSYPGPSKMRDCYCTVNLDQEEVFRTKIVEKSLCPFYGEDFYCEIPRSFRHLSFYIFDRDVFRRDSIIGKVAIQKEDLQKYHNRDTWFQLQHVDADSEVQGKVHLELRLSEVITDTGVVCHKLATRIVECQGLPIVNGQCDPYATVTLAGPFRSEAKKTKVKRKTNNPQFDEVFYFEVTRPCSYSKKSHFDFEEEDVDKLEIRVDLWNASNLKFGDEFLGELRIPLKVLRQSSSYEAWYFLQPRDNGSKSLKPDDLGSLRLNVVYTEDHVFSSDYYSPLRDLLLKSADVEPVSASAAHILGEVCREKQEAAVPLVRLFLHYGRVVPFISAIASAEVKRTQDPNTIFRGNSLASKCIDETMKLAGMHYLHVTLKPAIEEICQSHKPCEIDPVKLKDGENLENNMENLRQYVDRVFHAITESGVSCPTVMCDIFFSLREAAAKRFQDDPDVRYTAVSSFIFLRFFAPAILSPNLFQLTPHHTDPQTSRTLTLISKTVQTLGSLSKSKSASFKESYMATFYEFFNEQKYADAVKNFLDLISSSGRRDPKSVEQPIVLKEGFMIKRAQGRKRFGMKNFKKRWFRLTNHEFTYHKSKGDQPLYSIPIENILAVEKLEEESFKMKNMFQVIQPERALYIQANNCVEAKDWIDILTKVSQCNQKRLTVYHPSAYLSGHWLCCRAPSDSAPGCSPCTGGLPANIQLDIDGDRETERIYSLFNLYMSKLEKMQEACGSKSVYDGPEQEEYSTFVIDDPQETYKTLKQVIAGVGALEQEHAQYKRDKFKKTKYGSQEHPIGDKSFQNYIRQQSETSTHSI
UniProt Q15771: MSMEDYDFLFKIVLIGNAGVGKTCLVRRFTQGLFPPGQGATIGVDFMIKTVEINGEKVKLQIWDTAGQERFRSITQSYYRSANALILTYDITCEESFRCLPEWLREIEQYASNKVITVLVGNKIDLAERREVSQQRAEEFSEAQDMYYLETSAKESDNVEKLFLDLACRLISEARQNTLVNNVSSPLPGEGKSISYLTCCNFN
UniProt Q9NW13: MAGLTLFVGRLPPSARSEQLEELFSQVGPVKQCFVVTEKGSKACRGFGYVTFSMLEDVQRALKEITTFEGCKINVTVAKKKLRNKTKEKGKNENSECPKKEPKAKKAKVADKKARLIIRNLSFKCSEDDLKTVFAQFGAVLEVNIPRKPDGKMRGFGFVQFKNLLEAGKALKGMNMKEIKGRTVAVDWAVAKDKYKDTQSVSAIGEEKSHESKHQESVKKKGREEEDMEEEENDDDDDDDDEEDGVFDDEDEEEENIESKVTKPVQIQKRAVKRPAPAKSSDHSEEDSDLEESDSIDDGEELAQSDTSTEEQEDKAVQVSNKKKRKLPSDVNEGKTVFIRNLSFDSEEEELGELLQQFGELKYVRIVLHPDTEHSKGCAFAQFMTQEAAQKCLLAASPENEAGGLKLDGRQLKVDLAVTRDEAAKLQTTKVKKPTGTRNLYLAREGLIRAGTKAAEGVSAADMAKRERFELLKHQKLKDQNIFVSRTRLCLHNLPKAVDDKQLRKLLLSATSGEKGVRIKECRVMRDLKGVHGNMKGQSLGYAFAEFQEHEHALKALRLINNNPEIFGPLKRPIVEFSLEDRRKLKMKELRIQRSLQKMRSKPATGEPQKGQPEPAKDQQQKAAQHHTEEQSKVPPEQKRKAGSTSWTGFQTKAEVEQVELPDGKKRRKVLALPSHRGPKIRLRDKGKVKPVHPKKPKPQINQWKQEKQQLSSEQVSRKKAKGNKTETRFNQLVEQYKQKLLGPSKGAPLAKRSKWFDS
UniProt O75884: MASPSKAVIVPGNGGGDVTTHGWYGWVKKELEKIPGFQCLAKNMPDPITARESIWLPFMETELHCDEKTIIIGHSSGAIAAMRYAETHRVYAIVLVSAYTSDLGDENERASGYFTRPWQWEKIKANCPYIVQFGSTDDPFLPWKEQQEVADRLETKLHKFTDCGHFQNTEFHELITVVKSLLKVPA
UniProt Q9H5N1: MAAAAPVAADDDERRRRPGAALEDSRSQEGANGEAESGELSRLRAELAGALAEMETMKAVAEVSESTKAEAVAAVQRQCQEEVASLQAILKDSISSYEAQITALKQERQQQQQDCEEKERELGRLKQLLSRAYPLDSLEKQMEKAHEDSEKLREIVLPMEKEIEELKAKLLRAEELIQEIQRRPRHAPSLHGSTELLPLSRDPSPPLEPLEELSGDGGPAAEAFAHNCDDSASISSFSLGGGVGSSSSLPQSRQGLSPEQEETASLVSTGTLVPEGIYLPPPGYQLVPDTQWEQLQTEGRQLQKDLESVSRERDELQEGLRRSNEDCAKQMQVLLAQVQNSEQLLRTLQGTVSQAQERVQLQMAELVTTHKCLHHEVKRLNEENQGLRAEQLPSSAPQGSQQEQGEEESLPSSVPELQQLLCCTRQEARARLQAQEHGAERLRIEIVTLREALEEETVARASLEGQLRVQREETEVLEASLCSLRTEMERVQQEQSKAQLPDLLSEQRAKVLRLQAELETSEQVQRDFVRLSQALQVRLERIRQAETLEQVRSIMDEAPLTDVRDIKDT
UniProt Q9BYM8: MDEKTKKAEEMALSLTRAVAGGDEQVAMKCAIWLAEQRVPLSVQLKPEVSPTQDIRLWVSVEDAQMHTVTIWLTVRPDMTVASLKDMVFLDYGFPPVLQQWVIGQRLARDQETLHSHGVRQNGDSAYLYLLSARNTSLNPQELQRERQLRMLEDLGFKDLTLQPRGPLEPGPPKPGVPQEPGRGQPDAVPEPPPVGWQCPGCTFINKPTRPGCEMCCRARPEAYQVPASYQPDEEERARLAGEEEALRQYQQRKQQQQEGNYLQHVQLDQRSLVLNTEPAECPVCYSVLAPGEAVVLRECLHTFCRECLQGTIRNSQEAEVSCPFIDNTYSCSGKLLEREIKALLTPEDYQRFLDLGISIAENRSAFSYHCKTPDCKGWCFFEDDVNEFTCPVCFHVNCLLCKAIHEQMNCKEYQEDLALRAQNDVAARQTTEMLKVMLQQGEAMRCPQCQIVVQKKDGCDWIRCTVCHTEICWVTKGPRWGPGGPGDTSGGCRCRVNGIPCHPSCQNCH
UniProt Q86WH2: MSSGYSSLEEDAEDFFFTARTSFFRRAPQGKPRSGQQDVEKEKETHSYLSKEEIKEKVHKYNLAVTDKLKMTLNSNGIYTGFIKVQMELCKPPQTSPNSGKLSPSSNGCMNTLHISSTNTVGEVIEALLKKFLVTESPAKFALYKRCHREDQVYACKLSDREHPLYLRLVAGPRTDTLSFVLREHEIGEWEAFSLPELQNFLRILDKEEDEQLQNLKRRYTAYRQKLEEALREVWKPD
UniProt Q09028, whole entry, looked up: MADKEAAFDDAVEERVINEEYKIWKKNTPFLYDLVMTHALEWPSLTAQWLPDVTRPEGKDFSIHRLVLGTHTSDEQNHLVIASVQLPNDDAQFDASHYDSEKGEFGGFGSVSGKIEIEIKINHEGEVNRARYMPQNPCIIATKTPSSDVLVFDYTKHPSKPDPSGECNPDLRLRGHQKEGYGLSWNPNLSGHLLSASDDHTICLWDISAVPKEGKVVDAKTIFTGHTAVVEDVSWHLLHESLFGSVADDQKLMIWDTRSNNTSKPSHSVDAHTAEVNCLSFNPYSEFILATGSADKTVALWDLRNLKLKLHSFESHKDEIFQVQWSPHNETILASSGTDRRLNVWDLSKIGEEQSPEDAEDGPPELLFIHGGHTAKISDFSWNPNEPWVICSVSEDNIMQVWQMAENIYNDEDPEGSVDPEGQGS
UniProt O75771: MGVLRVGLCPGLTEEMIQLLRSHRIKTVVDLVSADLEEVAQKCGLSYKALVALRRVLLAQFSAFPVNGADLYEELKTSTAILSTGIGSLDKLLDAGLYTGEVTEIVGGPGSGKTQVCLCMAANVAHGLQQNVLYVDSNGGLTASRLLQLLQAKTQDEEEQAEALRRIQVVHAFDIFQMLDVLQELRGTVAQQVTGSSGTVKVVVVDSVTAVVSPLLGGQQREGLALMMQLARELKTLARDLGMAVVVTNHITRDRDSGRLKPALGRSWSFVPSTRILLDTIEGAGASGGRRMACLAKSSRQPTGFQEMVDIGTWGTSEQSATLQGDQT
UniProt P54725: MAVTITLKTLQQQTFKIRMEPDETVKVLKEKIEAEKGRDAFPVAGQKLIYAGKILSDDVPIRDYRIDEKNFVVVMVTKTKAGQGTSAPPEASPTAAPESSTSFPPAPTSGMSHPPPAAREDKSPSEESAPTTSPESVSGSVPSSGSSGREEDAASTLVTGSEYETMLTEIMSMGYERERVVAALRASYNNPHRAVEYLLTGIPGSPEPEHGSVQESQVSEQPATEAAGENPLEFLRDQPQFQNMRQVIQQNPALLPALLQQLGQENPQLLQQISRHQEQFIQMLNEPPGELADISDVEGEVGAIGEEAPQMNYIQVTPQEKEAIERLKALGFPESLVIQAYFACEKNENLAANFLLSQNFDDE
UniProt Q86X27: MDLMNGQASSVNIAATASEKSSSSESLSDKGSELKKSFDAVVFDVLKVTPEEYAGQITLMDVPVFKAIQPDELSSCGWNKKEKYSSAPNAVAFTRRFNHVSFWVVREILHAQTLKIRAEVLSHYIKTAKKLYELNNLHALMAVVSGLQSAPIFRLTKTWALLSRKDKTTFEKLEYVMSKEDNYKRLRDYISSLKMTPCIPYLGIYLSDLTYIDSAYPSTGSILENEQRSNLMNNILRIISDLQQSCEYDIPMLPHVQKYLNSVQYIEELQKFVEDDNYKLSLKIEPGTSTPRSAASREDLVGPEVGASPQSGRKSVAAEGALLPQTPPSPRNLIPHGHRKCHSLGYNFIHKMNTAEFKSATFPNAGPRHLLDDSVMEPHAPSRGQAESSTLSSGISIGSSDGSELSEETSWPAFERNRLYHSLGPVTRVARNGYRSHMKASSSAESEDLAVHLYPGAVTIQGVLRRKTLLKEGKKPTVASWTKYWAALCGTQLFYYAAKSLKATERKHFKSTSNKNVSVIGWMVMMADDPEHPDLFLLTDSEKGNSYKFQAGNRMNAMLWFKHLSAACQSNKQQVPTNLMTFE
UniProt Q86U06: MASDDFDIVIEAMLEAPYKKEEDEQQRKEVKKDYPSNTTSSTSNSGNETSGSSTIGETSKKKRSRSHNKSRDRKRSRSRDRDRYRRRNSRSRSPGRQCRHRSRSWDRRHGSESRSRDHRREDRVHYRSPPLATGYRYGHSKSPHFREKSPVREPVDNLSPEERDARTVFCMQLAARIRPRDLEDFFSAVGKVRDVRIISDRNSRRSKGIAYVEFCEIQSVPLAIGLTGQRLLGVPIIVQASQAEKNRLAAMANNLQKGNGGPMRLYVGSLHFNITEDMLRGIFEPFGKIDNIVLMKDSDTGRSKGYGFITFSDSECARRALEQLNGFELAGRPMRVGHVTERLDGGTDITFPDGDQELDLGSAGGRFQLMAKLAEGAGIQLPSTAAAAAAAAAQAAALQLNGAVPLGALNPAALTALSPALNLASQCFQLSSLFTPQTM

crizotinib = compound: C[C@@H](Oc1cc(-c2cnn(C3CCNCC3)c2)cnc1N)c1c(Cl)ccc(F)c1Cl [crizotinib]
Method in brief: as §1

[2] = compound: C[C@@H]1COCCN1C2=NC(=NC(=C2)C3(CC3)S(=O)(=O)C)C4=C5C=CNC5=CC=C4
Method in brief: as §1

[3] = compound: C[C@H](C1=CC=C(C=C1)C(=O)NC2=C3C=CNC3=NC=C2)N
Method in brief: as §1

gandotinib = compound: Cc1cc(Nc2cc(CN3CCOCC3)c3nc(C)c(Cc4ccc(Cl)cc4F)n3n2)n[nH]1 [gandotinib]
Method in brief: as §1

[4] = compound: Cc1cc(SCc2sc(-c3ccc(C(F)(F)F)cc3)nc2C)ccc1OCC(=O)O
Method in brief: as §1

doramapimod = compound: Cc1ccc(-n2nc(C(C)(C)C)cc2NC(=O)Nc2ccc(OCCN3CCOCC3)c3ccccc23)cc1 [doramapimod]
Method in brief: as §1

ispinesib = compound: Cc1ccc(C(=O)N(CCCN)[C@@H](c2nc3cc(Cl)ccc3c(=O)n2Cc2ccccc2)C(C)C)cc1 [ispinesib]
Method in brief: as §1

tozasertib = compound: Cc1cc(Nc2cc(N3CCN(C)CC3)nc(Sc3ccc(NC(=O)C4CC4)cc3)n2)n[nH]1 [tozasertib]
Method in brief: as §1

duvelisib = compound: C[C@H](Nc1ncnc2nc[nH]c12)c1cc2cccc(Cl)c2c(=O)n1-c1ccccc1 [duvelisib]
Method in brief: as §1

Measured: log2 fold change

RAC1 (UniProt P63000)
inactive: [1] -0.094 | crizotinib 0 | [2] -0.04 | [3] -0.06 | gandotinib -0.037 | [4] -0.044 | doramapimod 0.112 | ispinesib 0.024

RAD50 isoform 2 (UniProt Q92878)
inactive: [1] 0.031 | crizotinib 0.064 | [2] 0.044 | [3] -0.039 | gandotinib -0.017 | [4] 0.021 | doramapimod -0.023 | ispinesib 0.033

RAPGEF4 (UniProt Q8WZA2)
inactive: [1] 0.115 | crizotinib 0.051 | [2] 0.04 | [3] -0.061 | [4] -0.139 | doramapimod 0.097

RAB3IL1 (UniProt Q8TBN0)
inactive: [1] 0.009 | crizotinib 0.086 | [2] 0.071 | [3] 0.031 | gandotinib 0.012 | [4] -0.009 | doramapimod -0.021 | ispinesib 0.04

RAB19 isoform 2 (UniProt A4D1S5)
inactive: [1] 0.03 | crizotinib -0.015 | [2] -0.029 | doramapimod 0.171

RAD50, A0A494C0Y7
inactive: [1] 0.029 | crizotinib -0.024 | [3] 0.204 | gandotinib 0.021 | [4] 0.054 | doramapimod 0.034 | ispinesib -0.054

RAB9A (UniProt P51151)
inactive: [1] 0.007 | crizotinib -0.119 | [2] -0.006 | [3] -0.044 | gandotinib 0 | [4] 0.016 | doramapimod 0.018 | ispinesib -0.168

RABGAP1L isoform 5 (UniProt Q5R372)
inactive: [1] 0.071 | crizotinib 0.003 | [2] 0.022 | [3] 0.046 | [4] -0.015 | doramapimod -0.073

RBM27 (UniProt Q9P2N5)
inactive: [1] 0.006 | crizotinib 0.021 | [2] 0.026 | [3] -0.174 | gandotinib -0.019 | [4] 0.09 | doramapimod -0.035 | ispinesib -0.122

RABGAP1L isoform 3 (UniProt Q5R372)
inactive: [1] -0.018 | crizotinib 0.005 | [2] -0.004 | [3] -0.138 | gandotinib -0.018 | [4] 0.05 | doramapimod 0.052 | ispinesib 0.046

RABGGTA (UniProt Q92696)
inactive: [1] -0.035 | crizotinib -0.076 | [2] 0.046 | [3] -0.058 | gandotinib -0.004 | [4] -0.008 | doramapimod 0.017 | ispinesib 0.026

RBIS (UniProt Q8N0T1)
inactive: [1] -0.157 | crizotinib -0.097 | [2] -0.086 | [3] 0.069 | gandotinib 0.053 | [4] -0.045 | doramapimod 0.062 | ispinesib 0.009

RBBP8 isoform 2 (UniProt Q99708)
inactive: crizotinib 0.212 | tozasertib -0.087 | doramapimod -0.067

RBM14 (UniProt Q96PK6)
inactive: crizotinib -0.025 | [3] 0 | duvelisib 0.046 | gandotinib 0.028 | tozasertib -0.101 | [4] 0.08 | doramapimod 0.026 | ispinesib -0.057

RAB3B (UniProt P20337)
inactive: [1] 0.005 | gandotinib 0.195 | tozasertib 0.043 | ispinesib -0.296

RASA3 (UniProt Q14644)
inactive: [3] 0.172 | duvelisib 0.41 | gandotinib 0.222 | [4] 0.041

RAB30 (UniProt Q15771)
inactive: crizotinib 0.115 | [2] -0.028 | [3] -0.215 | duvelisib -0.117 | gandotinib -0.098 | [4] 0.009 | doramapimod -0.066 | ispinesib 0.05

RBKS (UniProt Q9H477)
inactive: ispinesib -0.145

RBM28 (UniProt Q9NW13)
inactive: [1] -0.067 | [2] -0.192 | [3] 0.077 | ispinesib -0.117

RBBP9 (UniProt O75884)
inactive: [1] 0.074 | [2] -0.098

RABEP2 (UniProt Q9H5N1)
inactive: [3] 0.015 | ispinesib -0.008

RANBP6 (UniProt O60518)
inactive: [1] -0.02 | crizotinib 0.031 | duvelisib 0.259 | [4] 0.043 | doramapimod 0.05 | ispinesib -0.352

RANBP3 isoform 2 (UniProt Q9H6Z4)
inactive: [1] -0.215 | gandotinib 0.041 | tozasertib -0.095

RAB28 (UniProt P51157)
inactive: crizotinib -0.132 | [3] 0.216 | duvelisib 0.015 | gandotinib -0.004 | [4] 0.041 | doramapimod 0.028 | ispinesib -0.093

RAD51B (UniProt O15315)
inactive: [1] 0.005 | [2] 0.118 | [3] 0.003 | duvelisib 0.219 | gandotinib 0.117 | tozasertib -0.079 | [4] 0.123

RAD17 (UniProt O75943)
inactive: crizotinib 0.13 | duvelisib 0.025 | tozasertib -0.023 | [4] 0.128 | doramapimod 0.085

RAI1 (UniProt Q7Z5J4)
inactive: [1] 0.127 | [2] 0.206 | ispinesib -0.43

RBCK1 (UniProt Q9BYM8)
inactive: [2] -0.028 | [3] 0.143 | duvelisib -0.164 | tozasertib 0.062 | [4] 0.17

RASSF3 (UniProt Q86WH2)
inactive: [3] 0.075 | gandotinib -0.037 | ispinesib -0.066

RBBP4 isoform 2 (UniProt Q09028)
inactive: [3] 0.254 | duvelisib 0.101 | gandotinib 0.047 | [4] -0.035

RAP2C (UniProt Q9Y3L5)
active: gandotinib -0.742
inactive: [1] -0.046 | [2] 0.007 | [3] -0.144 | [4] -0.108 | ispinesib 0.009

RASSF1 (UniProt Q9NS23)
inactive: [1] 0.043 | ispinesib -0.276

RACK1 (UniProt D6RHH4)
inactive: [1] 0.478 | [2] -0.177 | [3] 0.34 | duvelisib 0.014 | gandotinib 0.032 | tozasertib -0.256 | [4] -0.242

R3HDM4 (UniProt Q96D70)
inactive: [1] 0.124 | [2] -0.023 | duvelisib 0.056 | tozasertib -0.092 | [4] 0.182

RAD51D (UniProt O75771)
inactive: crizotinib -0.207 | [3] -0.052 | duvelisib 0.102 | gandotinib -0.383 | tozasertib -0.127 | [4] -0.077 | doramapimod 0.038 | ispinesib -0.396

RAB18 (UniProt H0Y6T8)
inactive: crizotinib -0.012 | [3] 0.327 | tozasertib -0.072 | doramapimod 0.089

RAI14 isoform 2 (UniProt Q9P0K7)
inactive: [1] -0.045 | [2] 0.044 | [3] -0.247 | duvelisib 0.119 | gandotinib -0.022 | tozasertib -0.026 | [4] -0.007 | ispinesib -0.139

RAD23A isoform 3 (UniProt P54725)
inactive: gandotinib 0.272

RALGPS2 (UniProt Q86X27)
inactive: crizotinib -0.237 | [2] -0.199 | [3] 0.222 | gandotinib 0.08 | [4] 0.106 | doramapimod 0.289

RAP1B (UniProt F5GWU8)
inactive: crizotinib 0.085 | [3] 0.075 | duvelisib 0.015 | [4] -0.11 | doramapimod -0.088 | ispinesib 0.082

RBBP5 isoform 2 (UniProt Q15291)
inactive: [1] 0.055 | [2] 0.069 | gandotinib -0.003 | tozasertib 0.058 | ispinesib -0.074

RBM23 (UniProt Q86U06)
inactive: [1] 0.086 | [2] 0.15 | [3] -0.031 | duvelisib 0.043 | [4] 0.111 | ispinesib 0.217

RAB11FIP5 (UniProt Q9BXF6)
inactive: ispinesib -0.052

RAB3D (UniProt O95716)
inactive: [3] -0.031 | gandotinib 0.083 | [4] -0.115 | ispinesib 0.2

RBL1 (UniProt P28749)
inactive: gandotinib -0.027

Copied from the entries so far (12 entries):
R3HDM4 (UniProt Q96D70)
inactive: [1] 0.124 | [2] -0.023 | duvelisib 0.056 | tozasertib -0.092 | [4] 0.182

RAD51D (UniProt O75771)
inactive: crizotinib -0.207 | [3] -0.052 | duvelisib 0.102 | gandotinib -0.383 | tozasertib -0.127 | [4] -0.077 | doramapimod 0.038 | ispinesib -0.396

RAB18 (UniProt H0Y6T8)
inactive: crizotinib -0.012 | [3] 0.327 | tozasertib -0.072 | doramapimod 0.089

RAI14 isoform 2 (UniProt Q9P0K7)
inactive: [1] -0.045 | [2] 0.044 | [3] -0.247 | duvelisib 0.119 | gandotinib -0.022 | tozasertib -0.026 | [4] -0.007 | ispinesib -0.139

RAD23A isoform 3 (UniProt P54725)
inactive: gandotinib 0.272

RALGPS2 (UniProt Q86X27)
inactive: crizotinib -0.237 | [2] -0.199 | [3] 0.222 | gandotinib 0.08 | [4] 0.106 | doramapimod 0.289

RAP1B (UniProt F5GWU8)
inactive: crizotinib 0.085 | [3] 0.075 | duvelisib 0.015 | [4] -0.11 | doramapimod -0.088 | ispinesib 0.082

RBBP5 isoform 2 (UniProt Q15291)
inactive: [1] 0.055 | [2] 0.069 | gandotinib -0.003 | tozasertib 0.058 | ispinesib -0.074

RBM23 (UniProt Q86U06)
inactive: [1] 0.086 | [2] 0.15 | [3] -0.031 | duvelisib 0.043 | [4] 0.111 | ispinesib 0.217

RAB11FIP5 (UniProt Q9BXF6)
inactive: ispinesib -0.052

RAB3D (UniProt O95716)
inactive: [3] -0.031 | gandotinib 0.083 | [4] -0.115 | ispinesib 0.2

RBL1 (UniProt P28749)
inactive: gandotinib -0.027

Reference: the supplement of paper PMC10849652
